Experimental data taken from patent publication US11230581B2, “Peptides and combination of peptides for use in immunotherapy against ovarian cancer and other cancers” (Immatics Biotechnologies GmbH, priority 2015, dated 2022).

System: additional tumor types
Test: LC-MS detection and over-presentation of the peptides on additional tumor types, cell lines and primary cultures
Set-up: species or system human
Conditions: for Other relevant organs/ cancerous diseases: Table 4A: additional tumor types on which the peptide was found, over-presented on more than 5% of measured tumor samples, or presented on more than 5% with ratio of geometric means tumor vs normal tissues larger than 3
[1] = amendment of Table 4: additional tumor types showing over-presentation (including specific presentation) on more than 5% of measured tumor samples, or presentation on more than 5% with ratio of geometric means tumor vs normal tissues larger than 3
[2] = additional tumor types with over-presentation on more than 5% of the measured tumor samples, or presentation on more than 5% with ratio of geometric means tumor vs normal tissues larger than 3

Row | Substance | Other relevant organs/ cancerous diseases | Additional organs/cancerous diseases [1] | Additional organs/cancerous diseases [2]
1 | 19 (FMVDNEAIYDI; listed as Homo sapiens) [compound 19] | SCLC, CRC, HCC, Leukemia, Melanoma, Esophageal Cancer, Urinary bladder Cancer | – | –
2 | 22 (IMEENPGIFAV; listed as Homo sapiens) [compound 22] | CRC, Leukemia, Melanoma | CLL, Urinary Bladder Cancer, Gallbladder Cancer and Bile Duct Cancer | –
3 | 49 (YLPAVFEEV; listed as Homo sapiens) [compound 49] | Leukemia | CLL | –
4 | 66 (FLDENIGGVAV; listed as Homo sapiens) [compound 66] | SCLC, HCC | Melanoma, Urinary Bladder Cancer, Uterine Cancer, Gallbladder Cancer and Bile Duct Cancer, AML, NHL, HNSCC | –
5 | 80 (FLYDNLVESL; listed as Homo sapiens) [compound 80] | Leukemia | CLL, NHL | –
6 | 85 (KMSELRVTL; listed as Homo sapiens) [compound 85] | SCLC, Esophageal Cancer | – | –
7 | 95 (SVIPQIQKV; listed as Homo sapiens) [compound 95] | PC, Esophageal Cancer | – | –
8 | 104 (STMEQNFLL; listed as Homo sapiens) [compound 104] | – | SCLC, BRCA, Melanoma, Gallbladder Cancer and Bile Duct Cancer, HNSCC | –
9 | 121 (GVVDPRAISVL; listed as Homo sapiens) [compound 121] | Esophageal Cancer | – | –
10 | 128 (YLFDDPLSAV; listed as Homo sapiens) [compound 128] | Leukemia, Esophageal Cancer | CLL, BRCA, Uterine Cancer, Gallbladder Cancer and Bile Duct Cancer, AML, NHL, HNSCC | –
11 | 140 (YMDAPKAAL; listed as Homo sapiens) [compound 140] | – | Melanoma, AML | –
12 | 154 (ALDDGTPAL; listed as Homo sapiens) [compound 154] | HCC | Uterine Cancer | –
13 | 195 (GLFADLLPRL; listed as Homo sapiens) [compound 195] | NSCLC | – | PC, Uterine Cancer, AML, HNSCC
14 | 207 (GLTSTNAEV; listed as Homo sapiens) [compound 207] | HCC, PrC, Esophageal Cancer, Uterine Cancer | – | AML
15 | 214 (FLLDLDPLLL; listed as Homo sapiens) [compound 214] | SCLC, HCC, Leukemia, Uterine Cancer | – | –
16 | 250 (ALSEEGLLVYL; listed as Homo sapiens) [compound 250] | – | – | BRCA, Melanoma
17 | 260 (TLLEGPDPAELLL; listed as Homo sapiens) [compound 260] | – | – | AML
18 | 262 (LLWGDLIWL; listed as Homo sapiens) [compound 262] | Leukemia | – | CRC, PrC, CLL, Melanoma, AML
19 | 264 (SLQEQLHSV; listed as Homo sapiens) [compound 264] | NSCLC, SCLC, PrC, BrCa, Melanoma, Esophageal Cancer | – | Uterine Cancer
20 | 266 (KITDTLIHL; listed as Homo sapiens) [compound 266] | BrCa | – | Uterine Cancer
21 | 268 (IAGPGLPDL; listed as Homo sapiens) [compound 268] | NSCLC, RCC, BrCa | – | HCC, Uterine Cancer, NHL

Row | Substance | Other relevant organs/ cancerous diseases | Additional organs/cancerous diseases [1] | Additional organs/cancerous diseases [2]
22 | 269 (RVLEVGALQAV; listed as Homo sapiens) [compound 269] | HCC | – | CLL
23 | 270 (LLLDEEGTFSL; listed as Homo sapiens) [compound 270] | Leukemia | – | CLL, BRCA, Melanoma, NHL
24 | 272 (ALGNTVPAV; listed as Homo sapiens) [compound 272] | PC, Leukemia, Endometrium | – | –
25 | 273 (NLFQSVREV; listed as Homo sapiens) [compound 273] | HCC, BrCa | – | –
26 | 276 (ALFTFSPLTV; listed as Homo sapiens) [compound 276] | Leukemia | – | Uterine Cancer
27 | 283 (ALYIGDGYVIHLA; listed as Homo sapiens) [compound 283] | SCLC, BrCa, MCC, Melanoma | – | Esophageal Cancer, Urinary Bladder Cancer, Uterine Cancer, NHL
28 | 284 (ILLSQTTGV; listed as Homo sapiens) [compound 284] | Prostate, Leukemia | – | CLL, Urinary Bladder Cancer, AML, HNSCC
29 | 286 (YLFPGIPEL; listed as Homo sapiens) [compound 286] | SCLC, HCC | – | NSCLC, CLL, Melanoma, AML, NHL, HNSCC
30 | 287 (FLNEFFLNV; listed as Homo sapiens) [compound 287] | NSCLC, Leukemia, Melanoma, Esophageal Cancer | – | –
31 | 290 (GLLDLNNAILQL; listed as Homo sapiens) [compound 290] | HCC | – | Uterine Cancer
32 | 291 (GLDSNLKYILV; listed as Homo sapiens) [compound 291] | PC, Melanoma | – | –
33 | 293 (GLGELQELYL; listed as Homo sapiens) [compound 293] | – | – | AML, NHL
34 | 294 (ILDPFQYQL; listed as Homo sapiens) [compound 294] | HCC, Esophageal Cancer | – | Melanoma, Gallbladder Cancer and Bile Duct Cancer, NHL, HNSCC
35 | 297 (VLADIELAQA; listed as Homo sapiens) [compound 297] | – | – | CLL
36 | 299 (YLLETSGNL; listed as Homo sapiens) [compound 299] | Leukemia, Urinary bladder Cancer | – | –
37 | 300 (ALLGQTFSL; listed as Homo sapiens) [compound 300] | SCLC, Brain Cancer, CRC | – | AML, HNSCC
38 | 301 (FLVEDLVDSL; listed as Homo sapiens) [compound 301] | SCLC, HCC, Leukemia | – | CLL, BRCA, Melanoma, Uterine Cancer, AML
39 | 302 (ALLQEGEVYSA; listed as Homo sapiens) [compound 302] | – | – | Melanoma, Urinary Bladder Cancer
40 | 304 (MTLGQIYYL; listed as Homo sapiens) [compound 304] | – | – | NSCLC, SCLC, CRC, HCC, BRCA, Melanoma, Urinary Bladder Cancer, Uterine Cancer, Gallbladder Cancer and Bile Duct Cancer, AML, HNSCC
41 | 306 (ALVNVQIPL; listed as Homo sapiens) [compound 306] | HCC, Esophageal Cancer | – | Melanoma, Uterine Cancer
